{"source": "PubChem BioAssay AID1053208 (Peter MacCallum Cancer Centre, 2014)", "assay": "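Find knock-downs that sensitise mouse osteosarcoma cells to doxorubicin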 (primary screen)", "cells": "mouse osteosarcoma cells, early-passage culture from an engineered mouse model of fibroblastic bone tumour", "reagents": "siRNA pool against mouse genes, 40 nM", "time to read-out": "about 120 h (48 h before drug, then 72 h with drug)", "conditions": "doxorubicin 100 nM for 72 h, roughly 30-40% inhibitory dose", "measurement": "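Viability read as ATP luminescence after 72 h of 100 nM doxorubicin or none, duplicate wells averaged, scaled to non-targeting siRNA, then expressed as robust z-scores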", "scale": "viability z-score with doxorubicin: higher = more viable cells under doxorubicin; viability z-score without drug: higher = more viable cells with knock-down alone", "rule for the call": "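Called active if knock-down leaves viability unchanged without drug (z within -2 to 2) but lowers it with doxorubicin (z at or under -2)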", "note": "The whole screen tested about 17,000 reagents; below is a part drawn at random. Over the whole deposit, 788 (4.7%) are marked active. 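Calls rest on z-score classes alone; an extra cut-off of viability at most 70% of control was not applied to them.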 Not all columns of the deposit are shown."}
{"gene symbol": "Rnf185", "combined z-score class": "high cell count with and without drug", "viability z-score with doxorubicin": 2.02, "viability z-score without drug": 2.36, "Outcome": "inactive"}
{"gene symbol": "Nbr1", "combined z-score class": "no change with or without drug", "viability z-score with doxorubicin": 0.56, "viability z-score without drug": -1.85, "Outcome": "inactive"}
{"gene symbol": "Gsap", "combined z-score class": "no change with or without drug", "viability z-score with doxorubicin": 0.56, "viability z-score without drug": 0.84, "Outcome": "inactive"}
{"gene symbol": "Vmn1r21", "combined z-score class": "no change with or without drug", "viability z-score with doxorubicin": -0.9, "viability z-score without drug": 0.17, "Outcome": "inactive"}
{"gene symbol": "Cisd1", "combined z-score class": "no change with or without drug", "viability z-score with doxorubicin": -0.67, "viability z-score without drug": -1.01, "Outcome": "inactive"}
{"gene symbol": "Entpd5", "combined z-score class": "no change with or without drug", "viability z-score with doxorubicin": 0, "viability z-score without drug": 0.84, "Outcome": "inactive"}
{"gene symbol": "Slc35a3", "combined z-score class": "no change with or without drug", "viability z-score with doxorubicin": -1.8, "viability z-score without drug": -0.67, "Outcome": "inactive"}
{"gene symbol": "Scin", "combined z-score class": "low cell count with doxorubicin only", "viability z-score with doxorubicin": -2.7, "viability z-score without drug": -0.51, "Outcome": "active"}
{"gene symbol": "Glrx5", "combined z-score class": "no change with or without drug", "viability z-score with doxorubicin": -0.79, "viability z-score without drug": -0.17, "Outcome": "inactive"}
{"gene symbol": "Epx", "combined z-score class": "no change with or without drug", "viability z-score with doxorubicin": -0.22, "viability z-score without drug": 0.67, "Outcome": "inactive"}
{"gene symbol": "Phip", "combined z-score class": "no change with or without drug", "viability z-score with doxorubicin": -0.45, "viability z-score without drug": -0.17, "Outcome": "inactive"}
{"gene symbol": "Hsf4", "combined z-score class": "no change with or without drug", "viability z-score with doxorubicin": -0.9, "viability z-score without drug": -1.18, "Outcome": "inactive"}
{"gene symbol": "Lpgat1", "combined z-score class": "no change with or without drug", "viability z-score with doxorubicin": -0.79, "viability z-score without drug": -1.52, "Outcome": "inactive"}
{"gene symbol": "Ugt2b1", "combined z-score class": "no change with or without drug", "viability z-score with doxorubicin": 1.35, "viability z-score without drug": -0.67, "Outcome": "inactive"}
{"gene symbol": "Cops4", "combined z-score class": "no change with or without drug", "viability z-score with doxorubicin": -1.46, "viability z-score without drug": -0.17, "Outcome": "inactive"}
{"gene symbol": "Ankrd22", "combined z-score class": "no change with or without drug", "viability z-score with doxorubicin": -0.45, "viability z-score without drug": 0.51, "Outcome": "inactive"}
{"gene symbol": "Ubd", "combined z-score class": "no change with or without drug", "viability z-score with doxorubicin": -0.67, "viability z-score without drug": 0.84, "Outcome": "inactive"}
{"gene symbol": "Vkorc1", "combined z-score class": "low cell count with doxorubicin only", "viability z-score with doxorubicin": -2.25, "viability z-score without drug": 0.51, "Outcome": "active"}
{"gene symbol": "Cd244a", "combined z-score class": "no change with or without drug", "viability z-score with doxorubicin": 0.9, "viability z-score without drug": -0.51, "Outcome": "inactive"}
{"gene symbol": "Ctsl", "combined z-score class": "no change with or without drug", "viability z-score with doxorubicin": 0.45, "viability z-score without drug": 0.51, "Outcome": "inactive"}
{"gene symbol": "Robo3", "combined z-score class": "no change with or without drug", "viability z-score with doxorubicin": 0.79, "viability z-score without drug": -0.17, "Outcome": "inactive"}
{"gene symbol": "Aida", "combined z-score class": "no change with or without drug", "viability z-score with doxorubicin": 1.69, "viability z-score without drug": 0.51, "Outcome": "inactive"}
{"gene symbol": "Scly", "combined z-score class": "no change with or without drug", "viability z-score with doxorubicin": -1.69, "viability z-score without drug": -0.67, "Outcome": "inactive"}
{"gene symbol": "Stk10", "combined z-score class": "no change with or without drug", "viability z-score with doxorubicin": 0.9, "viability z-score without drug": -1.35, "Outcome": "inactive"}
{"gene symbol": "Pex39", "combined z-score class": "no change with or without drug", "viability z-score with doxorubicin": -0.11, "viability z-score without drug": 1.01, "Outcome": "inactive"}
{"gene symbol": "Or9g8", "combined z-score class": "no change with or without drug", "viability z-score with doxorubicin": -0.45, "viability z-score without drug": 0.17, "Outcome": "inactive"}
{"gene symbol": "Cd63", "combined z-score class": "no change with or without drug", "viability z-score with doxorubicin": -1.12, "viability z-score without drug": -0.17, "Outcome": "inactive"}
{"gene symbol": "Cryz", "combined z-score class": "no change with or without drug", "viability z-score with doxorubicin": 0.56, "viability z-score without drug": 0.17, "Outcome": "inactive"}
{"gene symbol": "Clrn1", "combined z-score class": "low cell count with doxorubicin only", "viability z-score with doxorubicin": -3.6, "viability z-score without drug": -1.18, "Outcome": "active"}
{"gene symbol": "St8sia2", "combined z-score class": "no change with or without drug", "viability z-score with doxorubicin": -1.69, "viability z-score without drug": -1.01, "Outcome": "inactive"}
{"gene symbol": "Fn1", "combined z-score class": "no change with or without drug", "viability z-score with doxorubicin": -0.67, "viability z-score without drug": 0.34, "Outcome": "inactive"}
{"gene symbol": "Hspa5", "combined z-score class": "no change with or without drug", "viability z-score with doxorubicin": 0.22, "viability z-score without drug": 1.18, "Outcome": "inactive"}
{"gene symbol": "Trim56", "combined z-score class": "no change with or without drug", "viability z-score with doxorubicin": 0.79, "viability z-score without drug": -0.84, "Outcome": "inactive"}
{"gene symbol": "Serpina6", "combined z-score class": "high cell count without drug only", "viability z-score with doxorubicin": 0.9, "viability z-score without drug": 2.19, "Outcome": "inactive"}
{"gene symbol": "Nhsl1", "combined z-score class": "no change with or without drug", "viability z-score with doxorubicin": 1.12, "viability z-score without drug": 0.51, "Outcome": "inactive"}
{"gene symbol": "Esrrg", "combined z-score class": "no change with or without drug", "viability z-score with doxorubicin": -1.91, "viability z-score without drug": -0.84, "Outcome": "inactive"}

Reprinted from the entries so far, 6 entries:
{"gene symbol": "Hsf4", "combined z-score class": "no change with or without drug", "viability z-score with doxorubicin": -0.9, "viability z-score without drug": -1.18, "Outcome": "inactive"}
{"gene symbol": "Lpgat1", "combined z-score class": "no change with or without drug", "viability z-score with doxorubicin": -0.79, "viability z-score without drug": -1.52, "Outcome": "inactive"}
{"gene symbol": "Ugt2b1", "combined z-score class": "no change with or without drug", "viability z-score with doxorubicin": 1.35, "viability z-score without drug": -0.67, "Outcome": "inactive"}
{"gene symbol": "Cops4", "combined z-score class": "no change with or without drug", "viability z-score with doxorubicin": -1.46, "viability z-score without drug": -0.17, "Outcome": "inactive"}
{"gene symbol": "Ankrd22", "combined z-score class": "no change with or without drug", "viability z-score with doxorubicin": -0.45, "viability z-score without drug": 0.51, "Outcome": "inactive"}
{"gene symbol": "Ubd", "combined z-score class": "no change with or without drug", "viability z-score with doxorubicin": -0.67, "viability z-score without drug": 0.84, "Outcome": "inactive"}
